These are yes or no findings as the source states them, for the method shown. In cells and extracts the contact can be indirect. A yes stands for co-enrichment or nearness to the bait. Other partners may have been found.
B1: DBI (protein, UniProt P07108 1-87)
chain: MSQAEFEKAAEEVRHLKTKPSDEEMLFIYGHYKQATVGDINTERPGMLDFTGKAKWDAWNELKGTSKEDAMKAYINKVEELKKKYGI
B2: RETSAT (protein, UniProt Q6NUM9 19-610)
chain: KVYLGLFSGSSPNPFSEDVKRPPAPLVTDKEARKKVLKQAFSANQVPEKLDVVVIGSGFGGLAAAAILAKAGKRVLVLEQHTKAGGCCHTFGKNGLEFDTGIHYIGRMEEGSIGRFILDQITEGQLDWAPLSSPFDIMVLEGPNGRKEYPMYSGEKAYIQGLKEKFPQEEAIIDKYIKLVKVVSSGAPHAILLKFLPLPVVQLLDRCGLLTRFSPFLQASTQSLAEVLQQLGASSELQAVLSYIFPTYGVTPNHSAFSMHALLVNHYMKGGFYPRGGSSEIAFHTIPVIQRAGGAVLTKATVQSVLLDSAGKACGVSVKKGHELVNIYCPIVVSNAGLFNTYEHLLPGNARCLPGVKQQLGTVRPGLGMTSVFICLRGTKEDLHLPSTNYYVYYDTDMDQAMERYVSMPREEAAEHIPLLFFAFPSAKDPTWEDRFPGRSTMIMLIPTAYEWFEEWQAELKGKRGSDYETFKNSFVEASMSVVLKLFPQLEGKVESVTAGSPLTNQFYLAAPRGACYGADHDLGRLHPCVMASLRAQSPIPNLYLTGQDIFTCGLVGALQGALLCSSAILKRNLYSDLKNLDSRIRAQKKKN
B3: SLC4A7 (protein, UniProt Q9Y6M7 1-1214)
chain: MERFRLEKKLPGPDEEAVVDLGKTSSTVNTKFEKEELESHRAVYIGVHVPFSKESRRRHRHRGHKHHHRRRKDKESDKEDGRESPSYDTPSQRVQFILGTEDDDEEHIPHDLFTEMDELCYRDGEEYEWKETARWLKFEEDVEDGGDRWSKPYVATLSLHSLFELRSCILNGTVMLDMRASTLDEIADMVLDNMIASGQLDESIRENVREALLKRHHHQNEKRFTSRIPLVRSFADIGKKHSDPHLLERNGEGLSASRHSLRTGLSASNLSLRGESPLSLLLGHLLPSSRAGTPAGSRCTTPVPTPQNSPPSSPSISRLTSRSSQESQRQAPELLVSPASDDIPTVVIHPPEEDLEAALKGEEQKNEENVDLTPGILASPQSAPGNLDNSKSGEIKGNGSGGSRENSTVDFSKVDMNFMRKIPTGAEASNVLVGEVDFLERPIIAFVRLAPAVLLTGLTEVPVPTRFLFLLLGPAGKAPQYHEIGRSIATLMTDEIFHDVAYKAKDRNDLLSGIDEFLDQVTVLPPGEWDPSIRIEPPKSVPSQEKRKIPVFHNGSTPTLGETPKEAAHHAGPELQRTGRLFGGLILDIKRKAPFFLSDFKDALSLQCLASILFLYCACMSPVITFGGLLGEATEGRISAIESLFGASLTGIAYSLFAGQPLTILGSTGPVLVFEKILYKFCRDYQLSYLSLRTSIGLWTSFLCIVLVATDASSLVCYITRFTEEAFAALICIIFIYEALEKLFDLGETYAFNMHNNLDKLTSYSCVCTEPPNPSNETLAQWKKDNITAHNISWRNLTVSECKKLRGVFLGSACGHHGPYIPDVLFWCVILFFTTFFLSSFLKQFKTKRYFPTKVRSTISDFAVFLTIVIMVTIDYLVGVPSPKLHVPEKFEPTHPERGWIISPLGDNPWWTLLIAAIPALLCTILIFMDQQITAVIINRKEHKLKKGAGYHLDLLMVGVMLGVCSVMGLPWFVAATVLSISHVNSLKVESECSAPGEQPKFLGIREQRVTGLMIFILMGLSVFMTSVLKFIPMPVLYGVFLYMGVSSLKGIQLFDRIKLFGMPAKHQPDLIYLRYVPLWKVHIFTVIQLTCLVLLWVIKVSAAAVVFPMMVLALVFVRKLMDLCFTKRELSWLDDLMPESKKKKEDDKKKKEKEEAERMLQDDDDTVHLPFEGGSLLQIPVKALKYSPDKPVSVKISFEDEPRKKYVDAETSL
B4: PRKG2 (protein, UniProt Q13237 1-762)
chain: MGNGSVKPKHSKHPDGHSGNLTTDALRNKVTELERELRRKDAEIQEREYHLKELREQLSKQTVAIAELTEELQNKCIQLNKLQDVVHMQGGSPLQASPDKVPLEVHRKTSGLVSLHSRRGAKAGVSAEPTTRTYDLNKPPEFSFEKARVRKDSSEKKLITDALNKNQFLKRLDPQQIKDMVECMYGRNYQQGSYIIKQGEPGNHIFVLAEGRLEVFQGEKLLSSIPMWTTFGELAILYNCTRTASVKAITNVKTWALDREVFQNIMRRTAQARDEQYRNFLRSVSLLKNLPEDKLTKIIDCLEVEYYDKGDYIIREGEEGSTFFILAKGKVKVTQSTEGHDQPQLIKTLQKGEYFGEKALISDDVRSANIIAEENDVACLVIDRETFNQTVGTFEELQKYLEGYVANLNRDDEKRHAKRSMSNWKLSKALSLEMIQLKEKVARFSSSSPFQNLEIIATLGVGGFGRVELVKVKNENVAFAMKCIRKKHIVDTKQQEHVYSEKRILEELCSPFIVKLYRTFKDNKYVYMLLEACLGGELWSILRDRGSFDEPTSKFCVACVTEAFDYLHRLGIIYRDLKPENLILDAEGYLKLVDFGFAKKIGSGQKTWTFCGTPEYVAPEVILNKGHDFSVDFWSLGILVYELLTGNPPFSGVDQMMTYNLILKGIEKMDFPRKITRRPEDLIRRLCRQNPTERLGNLKNGINDIKKHRWLNGFNWEGLKARSLPSPLQRELKGPIDHSYFDKYPPEKGMPPDELSGWDKDF
B5: ALDH3A1 (protein, UniProt P30838 1-453)
chain: MSKISEAVKRARAAFSSGRTRPLQFRIQQLEALQRLIQEQEQELVGALAADLHKNEWNAYYEEVVYVLEEIEYMIQKLPEWAADEPVEKTPQTQQDELYIHSEPLGVVLVIGTWNYPFNLTIQPMVGAIAAGNSVVLKPSELSENMASLLATIIPQYLDKDLYPVINGGVPETTELLKERFDHILYTGSTGVGKIIMTAAAKHLTPVTLELGGKSPCYVDKNCDLDVACRRIAWGKFMNSGQTCVAPDYILCDPSIQNQIVEKLKKSLKEFYGEDAKKSRDYGRIISARHFQRVMGLIEGQKVAYGGTGDAATRYIAPTILTDVDPQSPVMQEEIFGPVLPIVCVRSLEEAIQFINQREKPLALYMFSSNDKVIKKMIAETSSGGVAANDVIVHITLHSLPFGGVGNSGMGSYHGKKSFETFSHRRSCLVRPLMNDEGLKVRYPPSPAKMTQH
B6: PGM2 (protein, UniProt Q96G03 1-612)
chain: MAAPEGSGLGEDARLDQETAQWLRWDKNSLTLEAVKRLIAEGNKEELRKCFGARMEFGTAGLRAAMGPGISRMNDLTIIQTTQGFCRYLEKQFSDLKQKGIVISFDARAHPSSGGSSRRFARLAATTFISQGIPVYLFSDITPTPFVPFTVSHLKLCAGIMITASHNPKQDNGYKVYWDNGAQIISPHDKGISQAIEENLEPWPQAWDDSLIDSSPLLHNPSASINNDYFEDLKKYCFHRSVNRETKVKFVHTSVHGVGHSFVQSAFKAFDLVPPEAVPEQKDPDPEFPTVKYPNPEEGKGVLTLSFALADKTKARIVLANDPDADRLAVAEKQDSGEWRVFSGNELGALLGWWLFTSWKEKNQDRSALKDTYMLSSTVSSKILRAIALKEGFHFEETLTGFKWMGNRAKQLIDQGKTVLFAFEEAIGYMCCPFVLDKDGVSAAVISAELASFLATKNLSLSQQLKAIYVEYGYHITKASYFICHDQETIKKLFENLRNYDGKNNYPKACGKFEISAIRDLTTGYDDSQPDKKAVLPTSKSSQMITFTFANGGVATMRTSGTEPKIKYYAELCAPPGNSDPEQLKKELNELVSAIEEHFFQPQKYNLQPKAD
B7: APEH (protein, UniProt P13798 1-732)
chain: MERQVLLSEPEEAAALYRGLSRQPALSAACLGPEVTTQYGGQYRTVHTEWTQRDLERMENIRFCRQYLVFHDGDSVVFAGPAGNSVETRGELLSRESPSGTMKAVLRKAGGTGPGEEKQFLEVWEKNRKLKSFNLSALEKHGPVYEDDCFGCLSWSHSETHLLYVAEKKRPKAESFFQTKALDVSASDDEIARLKKPDQAIKGDQFVFYEDWGENMVSKSIPVLCVLDVESGNISVLEGVPENVSPGQAFWAPGDAGVVFVGWWHEPFRLGIRFCTNRRSALYYVDLIGGKCELLSDDSLAVSSPRLSPDQCRIVYLQYPSLIPHHQCSQLCLYDWYTKVTSVVVDVVPRQLGENFSGIYCSLLPLGCWSADSQRVVFDSAQRSRQDLFAVDTQVGTVTSLTAGGSGGSWKLLTIDQDLMVAQFSTPSLPPTLKVGFLPSAGKEQSVLWVSLEEAEPIPDIHWGIRVLQPPPEQENVQYAGLDFEAILLQPGSPPDKTQVPMVVMPHGGPHSSFVTAWMLFPAMLCKMGFAVLLVNYRGSTGFGQDSILSLPGNVGHQDVKDVQFAVEQVLQEEHFDASHVALMGGSHGGFISCHLIGQYPETYRACVARNPVINIASMLGSTDIPDWCVVEAGFPFSSDCLPDLSVWAEMLDKSPIRYIPQVKTPLLLMLGQEDRRVPFKQGMEYYRALKTRNVPVRLLLYPKSTHALSEVEVESDSFMNAVLWLRTHLGS
B8: PSAT1 (protein, UniProt Q9Y617 1-370)
chain: MDAPRQVVNFGPGPAKLPHSVLLEIQKELLDYKGVGISVLEMSHRSSDFAKIINNTENLVRELLAVPDNYKVIFLQGGGCGQFSAVPLNLIGLKAGRCADYVVTGAWSAKAAEEAKKFGTINIVHPKLGSYTKIPDPSTWNLNPDASYVYYCANETVHGVEFDFIPDVKGAVLVCDMSSNFLSKPVDVSKFGVIFAGAQKNVGSAGVTVVIVRDDLLGFALRECPSVLEYKVQAGNSSLYNTPPCFSIYVMGLVLEWIKNNGGAAAMEKLSSIKSQTIYEIIDNSQGFYVCPVEPQNRSKMNIPFRIGNAKGDDALEKRFLDKALELNMLSLKGHRSVGGIRASLYNAVTIEDVQKLAAFMKKFLEMHQL
B9: UGP2 (protein, UniProt Q16851 1-508)
chain: MSRFVQDLSKAMSQDGASQFQEVIRQELELSVKKELEKILTTASSHEFEHTKKDLDGFRKLFHRFLQEKGPSVDWGKIQRPPEDSIQPYEKIKARGLPDNISSVLNKLVVVKLNGGLGTSMGCKGPKSLIGVRNENTFLDLTVQQIEHLNKTYNTDVPLVLMNSFNTDEDTKKILQKYNHCRVKIYTFNQSRYPRINKESLLPVAKDVSYSGENTEAWYPPGHGDIYASFYNSGLLDTFIGEGKEYIFVSNIDNLGATVDLYILNHLMNPPNGKRCEFVMEVTNKTRADVKGGTLTQYEGKLRLVEIAQVPKAHVDEFKSVSKFKIFNTNNLWISLAAVKRLQEQNAIDMEIIVNAKTLDGGLNVIQLETAVGAAIKSFENSLGINVPRSRFLPVKTTSDLLLVMSNLYSLNAGSLTMSEKREFPTVPLVKLGSSFTKVQDYLRRFESIPDMLELDHLTVSGDVTFGKNVSLKGTVIIIANHGDRIDIPPGAVLENKIVSGNLRILDH

Chains of the proteins cited; added tags and fusions are not shown.
UniProt Q13114: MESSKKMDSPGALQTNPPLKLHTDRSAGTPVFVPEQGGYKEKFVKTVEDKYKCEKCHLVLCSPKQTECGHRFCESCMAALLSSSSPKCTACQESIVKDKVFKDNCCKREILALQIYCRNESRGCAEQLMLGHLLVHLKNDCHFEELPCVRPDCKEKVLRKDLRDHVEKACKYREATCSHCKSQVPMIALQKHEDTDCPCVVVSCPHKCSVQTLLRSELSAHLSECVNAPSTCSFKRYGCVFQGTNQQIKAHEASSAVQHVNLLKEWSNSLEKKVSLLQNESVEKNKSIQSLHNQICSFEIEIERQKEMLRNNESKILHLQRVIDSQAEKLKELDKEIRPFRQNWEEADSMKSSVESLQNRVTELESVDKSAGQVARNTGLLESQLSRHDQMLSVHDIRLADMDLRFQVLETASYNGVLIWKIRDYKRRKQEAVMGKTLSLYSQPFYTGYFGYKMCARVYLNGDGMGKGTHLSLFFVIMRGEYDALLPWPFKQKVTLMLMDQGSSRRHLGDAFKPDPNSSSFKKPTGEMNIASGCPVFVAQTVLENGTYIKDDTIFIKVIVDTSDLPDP

target: TRAF3-SBP-6xHis (in transduced human MM 8226 cells) (human) (UniProt Q13114); experiment: affinity purification with mass spectrometry; mitochondria isolated from 8226 cells transduced with pUB-TRAF3-SBP-6xHis, lysed in 1% CHAPS lysis buffer; TRAF3-SBP-6xHis captured on Streptavidin-Sepharose beads, 5 washes; LC-MS/MS of gel slices; cells transduced with FLAG-TRAF3 as negative control

Binder	binding
B1	binds
B2	binds
B3	binds
B4	binds
B5	binds
B6	binds
B7	binds
B8	binds
B9	binds

Reference: paper PMC8564014
